{"source": "PubChem BioAssay AID248", "about": "(DTP/NCI, 2004)", "tested_on": "L1210 leukemia ip in BDF1 mice, survival T/C", "experiment": "NCI In Vivo Anticancer Drug Screen. Data for tumor model L1210 Leukemia (intraperitoneal) in B6D2F1 (BDF1) mice", "conditions": "T/C endpoint: mean survival time, higher T/C = longer survival", "note": "The list does not hold the whole screen: it is rich in T/C values a quarter to a half above the control, in often repeated tests (any T/C) and in doses without a T/C. Other doses and runs of a compound stand elsewhere. T/C is the treated group as % of the vehicle group. Some entries give survivors of the animals treated and no T/C: the source files T/C as zero there, which appears to mark a toxic dose or a test without result, not a measured value. Some doses without a T/C left all or most animals alive at the check, yet need not have been tolerated: the source hardly ever lists a survival T/C far under the control, and the zero likely stands for such cases as well. Survivors were counted at the toxicity check, usually on the fifth day, unless a day is given; later deaths do not show. Schedule codes are those of the source, taken here to give the interval after Q, in days (D) or hours (H), and the number of doses after X. Where survival is the endpoint, this PubChem deposit counts one and a half times the control or more as active, and values a quarter to a half above the control carry no call in these data; other NCI protocols may use other cut-offs. Some T/C values are followed by the survivors on the day toxicity was checked, most often the fifth; where none is given, no animal had died by that day. Some entries were tested several times; their values stand side by side, smallest first. Counts like (3×) count equal records among those shown. Some schedules carry Z or #; the key to these is not given.", "data": [{"smiles": "CC(CN1CC(=O)NC(=O)C1)N1CC(=O)NC(=O)C1", "note": "(stereo unspecified)", "values": [{"measurement": "T/C", "setting": "dose: 6.25 mg/kg/injection, schedule: Q01DX009 (oral), vehicle: steroid suspending solution", "result": "125 % of control"}, {"measurement": "T/C", "setting": "dose: 6.25 mg/kg/injection, schedule: Q03HX024 (oral), vehicle: steroid suspending solution", "result": "147 % of control"}, {"measurement": "T/C", "setting": "dose: 6.25 mg/kg/injection, schedule: Q06HX012 (oral), vehicle: steroid suspending solution", "result": "135 % of control"}, {"measurement": "T/C", "setting": "dose: 6.3 mg/kg/injection, schedule: Q03HX016 (oral), vehicle: steroid suspending solution", "result": "146 % of control"}, {"measurement": "T/C", "setting": "dose: 8.0 mg/kg/injection, schedule: Q01DX009 (ip), vehicle: saline with Tween-80", "result": "128 % of control"}, {"measurement": "T/C", "setting": "dose: 12.5 mg/kg/injection, schedule: Q01DX009 (ip), vehicle: steroid suspending solution, evaluated on day 33", "result": "144 % of control"}, {"measurement": "T/C", "setting": "dose: 12.5 mg/kg/injection, schedule: Q01DX009 (ip), vehicle: steroid suspending solution, evaluated on day 60", "result": "139 % of control"}, {"measurement": "T/C", "setting": "dose: 12.5 mg/kg/injection, schedule: Q01DX009 (oral), vehicle: steroid suspending solution", "result": "137 % of control"}, {"measurement": "T/C", "setting": "dose: 12.5 mg/kg/injection, schedule: Q03HX008 (ip), vehicle: steroid suspending solution", "result": "133 % of control"}, {"measurement": "T/C", "setting": "dose: 12.5 mg/kg/injection, schedule: Q03HX016 (oral), vehicle: steroid suspending solution", "result": "146 % of control"}, {"measurement": "T/C", "setting": "dose: 15.0 mg/kg/injection, schedule: Q01DX009 (ip), vehicle: saline with Tween-80", "result": "138 % of control"}, {"measurement": "T/C", "setting": "dose: 16.0 mg/kg/injection, schedule: Q01DX009 (ip), vehicle: saline with Tween-80", "result": "125 % of control"}, {"measurement": "T/C", "setting": "dose: 25.0 mg/kg/injection, schedule: Q01DX009 (sc), vehicle: steroid suspending solution", "result": "132 % of control"}, {"measurement": "T/C", "setting": "dose: 25.0 mg/kg/injection, schedule: Q01DX Z (ip), vehicle: steroid suspending solution", "result": "149 % of control"}, {"measurement": "survivor count", "setting": "dose: 25.0 mg/kg/injection, schedule: Q03HX024 (oral), vehicle: steroid suspending solution", "result": "6 of 8"}, {"measurement": "T/C", "setting": "dose: 30.0 mg/kg/injection, schedule: Q01DX009 (ip), vehicle: saline with Tween-80", "result": "143 % of control"}, {"measurement": "T/C", "setting": "dose: 32.0 mg/kg/injection, schedule: Q04DX003 (oral), vehicle: saline with Tween-80", "result": "130 % of control"}, {"measurement": "T/C", "setting": "dose: 50.0 mg/kg/injection, schedule: Q01DX009 (ip), vehicle: steroid suspending solution", "result": "133 % of control"}, {"measurement": "survivor count", "setting": "dose: 50.0 mg/kg/injection, schedule: Q03HX016 (oral), vehicle: steroid suspending solution", "result": "8 of 8"}, {"measurement": "survivor count", "setting": "dose: 50.0 mg/kg/injection, schedule: Q03HX024 (oral), vehicle: steroid suspending solution", "result": "8 of 8"}, {"measurement": "T/C", "setting": "dose: 50.0 mg/kg/injection, schedule: Q04DX003 (ip), vehicle: Klucel (hydroxypropylcellulose) (HPC), evaluated on day 5", "result": "110 and 120 % of control"}, {"measurement": "T/C", "setting": "dose: 50.0 mg/kg/injection, schedule: Q04DX003 (ip), vehicle: Klucel (hydroxypropylcellulose) (HPC), evaluated on day 30", "result": "110, 112, 113, 114, 120 % of control"}, {"measurement": "T/C", "setting": "dose: 50.0 mg/kg/injection, schedule: Q04DX003 (ip), vehicle: Klucel (hydroxypropylcellulose) (HPC), evaluated on day 60", "result": "107, 115, 116, 120 % of control"}, {"measurement": "T/C", "setting": "dose: 50.0 mg/kg/injection, schedule: Q04DX003 (ip), vehicle: saline with Tween-80, evaluated on day 20", "result": "110 % of control"}, {"measurement": "T/C", "setting": "dose: 50.0 mg/kg/injection, schedule: Q04DX003 (ip), vehicle: saline with Tween-80, evaluated on day 30", "result": "111 % of control"}, {"measurement": "T/C", "setting": "dose: 50.0 mg/kg/injection, schedule: Q04DX003 (ip), vehicle: saline with Tween-80, evaluated on day 60", "result": "112 and 123 % of control"}, {"measurement": "T/C", "setting": "dose: 50.0 mg/kg/injection, schedule: Q04DX003 (ip), vehicle: saline, evaluated on day 30", "result": "95 [5 of 6 alive], 100 [5 of 6 alive], 108, 110 (2×), 116 % of control"}, {"measurement": "T/C", "setting": "dose: 50.0 mg/kg/injection, schedule: Q04DX003 (ip), vehicle: saline, evaluated on day 60", "result": "115 % of control"}, {"measurement": "T/C", "setting": "dose: 50.0 mg/kg/injection, schedule: Q04DX003 (ip), vehicle: steroid suspending solution", "result": "126 % of control"}, {"measurement": "T/C", "setting": "dose: 50.0 mg/kg/injection, schedule: Q04DX003 (ip), vehicle: water, evaluated on day 5", "result": "119 (2×) and 120 % of control"}, {"measurement": "T/C", "setting": "dose: 50.0 mg/kg/injection, schedule: Q04DX003 (ip), vehicle: water, evaluated on day 30", "result": "116 % of control"}, {"measurement": "T/C", "setting": "dose: 50.0 mg/kg/injection, schedule: Q04DX003 (ip), vehicle: water, evaluated on day 60", "result": "104 and 119 % of control"}, {"measurement": "T/C", "setting": "dose: 50.0 mg/kg/injection, schedule: Q04DX003 (oral), vehicle: steroid suspending solution", "result": "139 % of control"}, {"measurement": "T/C", "setting": "dose: 100.0 mg/kg/injection, schedule: Q01DX001 (ip), vehicle: steroid suspending solution, evaluated on day 33", "result": "127 % of control"}, {"measurement": "T/C", "setting": "dose: 100.0 mg/kg/injection, schedule: Q01DX001 (ip), vehicle: steroid suspending solution, evaluated on day 60", "result": "135 % of control"}, {"measurement": "T/C", "setting": "dose: 100.0 mg/kg/injection, schedule: Q01DX009 (ip), vehicle: steroid suspending solution", "result": "144 % of control"}, {"measurement": "T/C", "setting": "dose: 100.0 mg/kg/injection, schedule: Q01DX009 (sc), vehicle: steroid suspending solution", "result": "139 % of control"}, {"measurement": "T/C", "setting": "dose: 100.0 mg/kg/injection, schedule: Q03HX016 (ip), vehicle: steroid suspending solution", "result": "127 % of control [6 of 8 alive]"}, {"measurement": "survivor count", "setting": "dose: 100.0 mg/kg/injection, schedule: Q03HX016 (oral), vehicle: steroid suspending solution", "result": "6 of 8"}, {"measurement": "survivor count", "setting": "dose: 100.0 mg/kg/injection, schedule: Q03HX024 (ip), vehicle: steroid suspending solution", "result": "7 of 8"}, {"measurement": "survivor count", "setting": "dose: 100.0 mg/kg/injection, schedule: Q03HX024 (oral), vehicle: steroid suspending solution", "result": "7 of 8"}, {"measurement": "T/C", "setting": "dose: 100.0 mg/kg/injection, schedule: Q04DX003 (ip), vehicle: Klucel (hydroxypropylcellulose) (HPC), evaluated on day 5", "result": "132, 134, 160 % of control"}, {"measurement": "T/C", "setting": "dose: 100.0 mg/kg/injection, schedule: Q04DX003 (ip), vehicle: Klucel (hydroxypropylcellulose) (HPC), evaluated on day 30", "result": "115, 119 (2×), 120, 124 % of control"}, {"measurement": "T/C", "setting": "dose: 100.0 mg/kg/injection, schedule: Q04DX003 (ip), vehicle: Klucel (hydroxypropylcellulose) (HPC), evaluated on day 60", "result": "128, 130, 132, 141, 160 % of control"}, {"measurement": "T/C", "setting": "dose: 100.0 mg/kg/injection, schedule: Q04DX003 (ip), vehicle: saline with Tween-80, evaluated on day 20", "result": "119 % of control"}, {"measurement": "T/C", "setting": "dose: 100.0 mg/kg/injection, schedule: Q04DX003 (ip), vehicle: saline with Tween-80, evaluated on day 30", "result": "120 % of control"}, {"measurement": "T/C", "setting": "dose: 100.0 mg/kg/injection, schedule: Q04DX003 (ip), vehicle: saline with Tween-80, evaluated on day 60", "result": "110 and 129 % of control"}, {"measurement": "T/C", "setting": "dose: 100.0 mg/kg/injection, schedule: Q04DX003 (ip), vehicle: saline, evaluated on day 30", "result": "97 [5 of 6 alive], 107, 113, 120, 126, 136 % of control"}, {"measurement": "T/C", "setting": "dose: 100.0 mg/kg/injection, schedule: Q04DX003 (ip), vehicle: saline, evaluated on day 60", "result": "231 % of control"}, {"measurement": "T/C", "setting": "dose: 100.0 mg/kg/injection, schedule: Q04DX003 (ip), vehicle: steroid suspending solution", "result": "145 % of control"}, {"measurement": "T/C", "setting": "dose: 100.0 mg/kg/injection, schedule: Q04DX003 (ip), vehicle: water, evaluated on day 5", "result": "108, 122, 168 % of control"}, {"measurement": "T/C", "setting": "dose: 100.0 mg/kg/injection, schedule: Q04DX003 (ip), vehicle: water, evaluated on day 30", "result": "114 % of control"}, {"measurement": "T/C", "setting": "dose: 100.0 mg/kg/injection, schedule: Q04DX003 (ip), vehicle: water, evaluated on day 60", "result": "165 and 168 % of control"}, {"measurement": "T/C", "setting": "dose: 100.0 mg/kg/injection, schedule: Q04DX003 (oral), vehicle: steroid suspending solution", "result": "147 % of control"}, {"measurement": "survivor count", "setting": "dose: 100.0 mg/kg/injection, schedule: Q06HX012 (oral), vehicle: steroid suspending solution", "result": "8 of 8"}, {"measurement": "T/C", "setting": "dose: 128.0 mg/kg/injection, schedule: Q04DX003 (ip), vehicle: saline with Tween-80", "result": "127 % of control"}, {"measurement": "T/C", "setting": "dose: 176.0 mg/kg/injection, schedule: Q01DX001 (ip), vehicle: saline", "result": "128 % of control"}, {"measurement": "T/C", "setting": "dose: 200.0 mg/kg/injection, schedule: Q01DX001 (ip), vehicle: steroid suspending solution", "result": "148 % of control"}, {"measurement": "T/C", "setting": "dose: 200.0 mg/kg/injection, schedule: Q04DX003 (ip), vehicle: Klucel (hydroxypropylcellulose) (HPC), evaluated on day 5", "result": "168, 223, 227 % of control"}, {"measurement": "T/C", "setting": "dose: 200.0 mg/kg/injection, schedule: Q04DX003 (ip), vehicle: Klucel (hydroxypropylcellulose) (HPC), evaluated on day 30", "result": "117, 124, 129, 141 [5 of 6 alive], 148 % of control"}, {"measurement": "T/C", "setting": "dose: 200.0 mg/kg/injection, schedule: Q04DX003 (ip), vehicle: Klucel (hydroxypropylcellulose) (HPC), evaluated on day 60", "result": "176, 223, 248, 251, 287 % of control"}]}]}
